{"source": "patent US11661582B2", "about": "“Method for producing sinoatrial node cells (pacemaker cells) from stem cells, and use of the produced sinoatrial node cells” (UNIVERSITAET ROSTOCK, priority 2013, dated 2023)", "test_system": "cells derived from iSABs (Myh6-TBX3 cells)", "assay": "Ca2+ imaging (Fluo-4) of spontaneous Ca2+ transients and SR Ca2+ stores in iSAB-derived cells", "assay_type": "cell-based, murine", "settings": "5 μM ZD 7288, 1 μM mibefradil, 1 μM nifedipine; 28° C.", "note": "Entries after “also recorded” stand apart in the source; their conditions may differ. At least one structure is not confirmed: it was looked up by name or label, or the drawing left a doubt."}
{"smiles": "COC(=O)C1=C(C)NC(C)=C(C(=O)OC)C1c1ccccc1[N+](=O)[O-]", "note": "[nifedipine]", "values": [{"measurement": "frequency of spontaneous Ca2+ transients", "value": "dramatically reduced; also recorded: decrease"}]}
